Shown are results outside the selection of targets with a hit, which stands elsewhere. The data scatter; read single values as rough. This is a selection; strong and weak results do not stand in their true shares.

Chains of the proteins cited; added tags and fusions are not shown. Lines headed by an entry give the natural chain unless they say otherwise; changes in a name come on top.
UniProt Q14919: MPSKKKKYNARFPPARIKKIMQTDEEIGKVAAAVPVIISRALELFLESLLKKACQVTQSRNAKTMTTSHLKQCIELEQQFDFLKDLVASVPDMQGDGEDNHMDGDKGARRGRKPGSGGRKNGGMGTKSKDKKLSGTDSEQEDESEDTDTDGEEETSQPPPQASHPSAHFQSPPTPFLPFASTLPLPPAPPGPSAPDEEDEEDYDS
UniProt Q14203, whole entry, looked up: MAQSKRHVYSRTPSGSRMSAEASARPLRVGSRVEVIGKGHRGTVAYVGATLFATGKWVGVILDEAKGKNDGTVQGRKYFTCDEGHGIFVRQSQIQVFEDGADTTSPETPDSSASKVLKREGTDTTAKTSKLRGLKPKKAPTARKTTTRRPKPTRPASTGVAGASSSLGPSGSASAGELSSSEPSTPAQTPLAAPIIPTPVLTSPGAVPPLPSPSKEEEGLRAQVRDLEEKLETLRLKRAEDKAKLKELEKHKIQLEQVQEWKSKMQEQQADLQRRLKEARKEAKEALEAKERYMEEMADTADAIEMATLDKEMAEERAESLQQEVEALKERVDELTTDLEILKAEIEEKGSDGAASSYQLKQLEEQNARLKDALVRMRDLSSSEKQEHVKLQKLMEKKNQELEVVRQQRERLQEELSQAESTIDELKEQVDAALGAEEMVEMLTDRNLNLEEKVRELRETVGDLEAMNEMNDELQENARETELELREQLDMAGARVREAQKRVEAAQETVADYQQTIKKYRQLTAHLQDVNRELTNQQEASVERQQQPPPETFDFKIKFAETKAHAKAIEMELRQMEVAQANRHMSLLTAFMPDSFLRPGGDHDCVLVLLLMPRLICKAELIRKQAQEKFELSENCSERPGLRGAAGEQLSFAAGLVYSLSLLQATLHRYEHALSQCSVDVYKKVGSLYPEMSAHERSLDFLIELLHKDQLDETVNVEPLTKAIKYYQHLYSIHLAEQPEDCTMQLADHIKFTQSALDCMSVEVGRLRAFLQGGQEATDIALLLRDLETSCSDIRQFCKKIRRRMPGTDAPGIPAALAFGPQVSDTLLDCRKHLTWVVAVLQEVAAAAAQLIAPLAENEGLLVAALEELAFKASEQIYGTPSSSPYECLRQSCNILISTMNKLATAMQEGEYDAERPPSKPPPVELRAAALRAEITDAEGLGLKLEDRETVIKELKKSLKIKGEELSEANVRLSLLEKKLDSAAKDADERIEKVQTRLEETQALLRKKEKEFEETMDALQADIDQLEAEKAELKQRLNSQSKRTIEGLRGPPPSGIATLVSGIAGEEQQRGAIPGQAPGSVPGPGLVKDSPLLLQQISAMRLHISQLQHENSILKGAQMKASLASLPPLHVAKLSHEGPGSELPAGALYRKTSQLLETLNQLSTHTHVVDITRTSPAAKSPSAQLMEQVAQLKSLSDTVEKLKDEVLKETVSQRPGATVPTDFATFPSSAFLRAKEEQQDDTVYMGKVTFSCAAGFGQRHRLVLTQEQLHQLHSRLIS
UniProt Q13885, whole entry, looked up: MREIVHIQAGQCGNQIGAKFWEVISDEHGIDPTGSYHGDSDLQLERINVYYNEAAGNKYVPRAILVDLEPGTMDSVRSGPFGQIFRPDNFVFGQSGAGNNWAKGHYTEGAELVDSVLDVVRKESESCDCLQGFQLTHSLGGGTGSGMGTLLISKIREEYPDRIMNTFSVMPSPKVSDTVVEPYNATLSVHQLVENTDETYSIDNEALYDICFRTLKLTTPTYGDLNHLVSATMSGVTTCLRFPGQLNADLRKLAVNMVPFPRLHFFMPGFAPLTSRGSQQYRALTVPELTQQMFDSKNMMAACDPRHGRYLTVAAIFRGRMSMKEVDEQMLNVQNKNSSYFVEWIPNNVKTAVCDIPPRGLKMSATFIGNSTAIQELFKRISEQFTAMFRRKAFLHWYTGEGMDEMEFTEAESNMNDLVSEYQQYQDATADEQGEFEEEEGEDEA
UniProt Q13608: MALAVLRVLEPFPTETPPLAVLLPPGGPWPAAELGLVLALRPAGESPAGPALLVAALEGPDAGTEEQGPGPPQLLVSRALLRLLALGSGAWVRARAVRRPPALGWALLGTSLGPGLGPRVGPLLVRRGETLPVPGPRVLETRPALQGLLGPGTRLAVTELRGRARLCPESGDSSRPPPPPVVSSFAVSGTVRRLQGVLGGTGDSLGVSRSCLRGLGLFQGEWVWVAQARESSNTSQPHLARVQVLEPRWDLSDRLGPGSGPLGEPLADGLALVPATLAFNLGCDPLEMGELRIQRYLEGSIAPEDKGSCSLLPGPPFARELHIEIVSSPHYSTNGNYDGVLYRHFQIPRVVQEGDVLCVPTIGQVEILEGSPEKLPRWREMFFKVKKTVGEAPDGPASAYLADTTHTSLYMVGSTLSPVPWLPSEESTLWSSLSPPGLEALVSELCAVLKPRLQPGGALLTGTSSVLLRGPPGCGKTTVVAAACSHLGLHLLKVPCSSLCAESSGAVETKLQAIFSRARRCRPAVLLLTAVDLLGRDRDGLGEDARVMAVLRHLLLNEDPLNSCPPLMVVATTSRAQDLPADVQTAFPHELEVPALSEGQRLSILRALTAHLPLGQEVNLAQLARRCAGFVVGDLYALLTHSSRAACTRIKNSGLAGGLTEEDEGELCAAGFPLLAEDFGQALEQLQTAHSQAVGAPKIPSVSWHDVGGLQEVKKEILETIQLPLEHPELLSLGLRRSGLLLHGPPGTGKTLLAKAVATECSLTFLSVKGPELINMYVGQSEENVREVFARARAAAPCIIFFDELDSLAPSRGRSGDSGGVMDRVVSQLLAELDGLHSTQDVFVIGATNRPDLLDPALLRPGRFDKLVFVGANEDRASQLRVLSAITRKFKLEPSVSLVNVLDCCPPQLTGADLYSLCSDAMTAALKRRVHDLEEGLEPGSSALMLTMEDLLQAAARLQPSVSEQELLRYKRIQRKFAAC
UniProt Q14247: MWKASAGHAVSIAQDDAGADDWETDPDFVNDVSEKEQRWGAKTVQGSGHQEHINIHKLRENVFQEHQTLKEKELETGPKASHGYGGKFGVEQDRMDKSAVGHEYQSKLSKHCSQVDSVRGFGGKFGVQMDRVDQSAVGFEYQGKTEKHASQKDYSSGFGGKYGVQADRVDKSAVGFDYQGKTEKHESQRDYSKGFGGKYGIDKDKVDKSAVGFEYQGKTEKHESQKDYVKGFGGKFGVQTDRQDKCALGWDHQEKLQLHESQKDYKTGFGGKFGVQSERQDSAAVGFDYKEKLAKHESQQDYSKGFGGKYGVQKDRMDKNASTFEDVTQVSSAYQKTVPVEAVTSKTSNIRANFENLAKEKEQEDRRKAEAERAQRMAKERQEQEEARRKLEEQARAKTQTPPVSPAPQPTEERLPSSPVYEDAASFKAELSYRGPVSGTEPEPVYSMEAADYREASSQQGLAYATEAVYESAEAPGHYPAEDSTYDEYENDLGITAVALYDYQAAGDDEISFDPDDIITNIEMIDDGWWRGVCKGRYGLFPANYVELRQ
UniProt Q14678: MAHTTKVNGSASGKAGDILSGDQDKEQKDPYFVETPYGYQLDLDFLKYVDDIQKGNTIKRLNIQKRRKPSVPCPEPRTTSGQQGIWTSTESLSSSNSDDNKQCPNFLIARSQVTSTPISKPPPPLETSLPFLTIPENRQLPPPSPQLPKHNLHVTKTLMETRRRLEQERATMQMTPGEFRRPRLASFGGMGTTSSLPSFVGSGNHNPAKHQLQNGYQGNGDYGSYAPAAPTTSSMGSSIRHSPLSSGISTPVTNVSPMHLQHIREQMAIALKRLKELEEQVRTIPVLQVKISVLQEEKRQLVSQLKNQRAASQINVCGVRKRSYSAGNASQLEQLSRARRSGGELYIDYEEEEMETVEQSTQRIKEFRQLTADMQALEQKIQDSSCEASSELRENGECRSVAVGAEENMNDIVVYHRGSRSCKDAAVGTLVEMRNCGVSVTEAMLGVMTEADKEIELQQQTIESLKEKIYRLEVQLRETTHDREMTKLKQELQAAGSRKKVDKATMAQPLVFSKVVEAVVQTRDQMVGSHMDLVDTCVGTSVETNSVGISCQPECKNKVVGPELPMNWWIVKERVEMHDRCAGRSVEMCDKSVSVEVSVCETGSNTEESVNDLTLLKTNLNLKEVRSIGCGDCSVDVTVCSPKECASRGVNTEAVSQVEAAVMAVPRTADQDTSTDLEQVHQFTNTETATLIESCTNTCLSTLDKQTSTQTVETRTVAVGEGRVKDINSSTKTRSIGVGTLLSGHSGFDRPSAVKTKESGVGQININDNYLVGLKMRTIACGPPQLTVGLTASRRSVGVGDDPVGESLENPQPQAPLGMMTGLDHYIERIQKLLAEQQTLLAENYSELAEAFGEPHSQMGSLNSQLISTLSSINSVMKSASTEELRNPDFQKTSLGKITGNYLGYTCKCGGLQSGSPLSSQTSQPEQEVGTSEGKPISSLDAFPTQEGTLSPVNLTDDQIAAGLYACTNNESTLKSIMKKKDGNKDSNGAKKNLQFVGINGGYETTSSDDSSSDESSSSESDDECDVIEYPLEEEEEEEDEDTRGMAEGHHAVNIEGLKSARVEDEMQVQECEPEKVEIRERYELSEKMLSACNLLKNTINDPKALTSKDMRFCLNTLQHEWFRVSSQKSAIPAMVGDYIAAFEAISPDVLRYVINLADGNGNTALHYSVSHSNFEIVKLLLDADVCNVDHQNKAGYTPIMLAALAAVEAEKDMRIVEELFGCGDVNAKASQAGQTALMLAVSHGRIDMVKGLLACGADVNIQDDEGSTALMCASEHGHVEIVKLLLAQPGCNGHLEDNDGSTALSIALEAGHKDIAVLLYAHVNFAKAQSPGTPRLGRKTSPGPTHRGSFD
UniProt Q13838, whole entry, looked up: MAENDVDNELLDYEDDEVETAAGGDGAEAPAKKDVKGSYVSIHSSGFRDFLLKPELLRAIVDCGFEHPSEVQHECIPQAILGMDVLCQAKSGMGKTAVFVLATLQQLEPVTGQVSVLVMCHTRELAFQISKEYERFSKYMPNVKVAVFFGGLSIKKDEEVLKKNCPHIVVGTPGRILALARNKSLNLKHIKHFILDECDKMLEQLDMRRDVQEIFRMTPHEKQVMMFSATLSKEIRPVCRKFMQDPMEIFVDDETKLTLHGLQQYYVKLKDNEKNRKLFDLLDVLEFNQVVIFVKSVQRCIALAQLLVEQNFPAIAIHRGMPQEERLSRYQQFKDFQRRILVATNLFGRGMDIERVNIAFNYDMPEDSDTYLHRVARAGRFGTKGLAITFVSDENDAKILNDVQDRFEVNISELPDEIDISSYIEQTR
UniProt Q14166: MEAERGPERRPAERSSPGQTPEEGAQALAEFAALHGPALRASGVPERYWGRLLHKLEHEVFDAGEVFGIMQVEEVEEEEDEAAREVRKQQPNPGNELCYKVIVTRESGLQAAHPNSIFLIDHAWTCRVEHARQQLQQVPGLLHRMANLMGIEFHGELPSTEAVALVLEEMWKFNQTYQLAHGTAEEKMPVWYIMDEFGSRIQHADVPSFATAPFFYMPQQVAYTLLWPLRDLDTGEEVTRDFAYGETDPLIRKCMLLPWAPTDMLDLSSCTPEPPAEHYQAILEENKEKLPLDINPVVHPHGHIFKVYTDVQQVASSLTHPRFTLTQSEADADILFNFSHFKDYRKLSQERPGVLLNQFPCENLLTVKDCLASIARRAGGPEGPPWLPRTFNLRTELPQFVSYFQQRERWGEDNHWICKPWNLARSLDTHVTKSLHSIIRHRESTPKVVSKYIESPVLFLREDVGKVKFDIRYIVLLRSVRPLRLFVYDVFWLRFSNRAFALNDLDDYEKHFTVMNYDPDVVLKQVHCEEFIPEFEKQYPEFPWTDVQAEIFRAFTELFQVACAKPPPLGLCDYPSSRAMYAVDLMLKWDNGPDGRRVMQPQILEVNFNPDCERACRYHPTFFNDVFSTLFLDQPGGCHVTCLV
UniProt Q13643: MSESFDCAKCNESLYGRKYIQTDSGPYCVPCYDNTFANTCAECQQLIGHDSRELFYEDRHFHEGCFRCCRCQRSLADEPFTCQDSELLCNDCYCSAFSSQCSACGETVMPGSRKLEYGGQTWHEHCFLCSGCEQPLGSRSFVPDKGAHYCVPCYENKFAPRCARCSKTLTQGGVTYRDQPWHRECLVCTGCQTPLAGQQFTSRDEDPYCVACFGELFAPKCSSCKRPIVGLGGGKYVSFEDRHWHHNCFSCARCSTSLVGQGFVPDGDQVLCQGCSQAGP
UniProt Q15004: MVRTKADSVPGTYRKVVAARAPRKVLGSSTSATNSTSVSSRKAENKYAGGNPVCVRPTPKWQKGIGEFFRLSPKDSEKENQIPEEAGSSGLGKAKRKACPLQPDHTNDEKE
UniProt Q15005: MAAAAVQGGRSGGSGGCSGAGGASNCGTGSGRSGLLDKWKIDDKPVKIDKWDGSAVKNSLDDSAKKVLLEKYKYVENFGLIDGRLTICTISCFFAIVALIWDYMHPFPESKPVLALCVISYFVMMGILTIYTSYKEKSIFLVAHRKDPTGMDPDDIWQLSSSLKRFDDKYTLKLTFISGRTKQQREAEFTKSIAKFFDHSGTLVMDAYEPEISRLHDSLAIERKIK

Compound in the assay: COC(=O)/C=C/c1ccccc1 [methyl cinnamate]
The assay can be described thus: log2 ratio of iodoacetamide-alkyne labeling of the cysteine site, DMSO over compound (competition); higher = stronger covalent engagement of the cysteine by the compound, active = 1 or more. The note with it: 500 µM; treatment time 1 h; system: HEK293T cell lysate. Summed up: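 The log2 competition ratio per cysteine is defined as mean reporter intensity in control channels over mean reporter intensity in compound channels. Lysate from HEK293T cells (2 mg/mL) received electrophile (500 µM) or vehicle for 1 h at ambient temperature, followed by iodoacetamide alkyne for 1 h. Samples were clicked to sCIP-TMT reagents, pooled, trypsin-digested overnight at 37 °C, streptavidin-enriched, acid-eluted and run on Orbitrap Eclipse LC-MS/MS with FAIMS, with quantification in FragPipe. Three replicates with duplicate channels were used, and any cysteine quantified in only one replicate was excluded.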
MORF4L2 C165 (UniProt Q15014): the “log2 ratio of iodoacetamide-alkyne labeling” value (shortened to “log2 ratio”) is inactive: 0.217.

Turning to PRPF4B C962 (UniProt Q13523), the “log2 ratio” value was inactive: -0.087.

For GAPVD1 C1220 (UniProt Q14C86), the “log2 ratio” value was inactive: 0.192.

For DRAP1 C73 (UniProt Q14919), the “log2 ratio” value is inactive: 0.0375.

For MTMR3 C826 (UniProt Q13615), the “log2 ratio” value was inactive: 0.0328.

Take DCTN1 C636 (UniProt Q14203): the “log2 ratio” value was inactive: 0.473.

As for ZNF638 C1654 (UniProt Q14966), the “log2 ratio” value was inactive: 0.127.

As for UniProt Q13885_C129, the “log2 ratio” value was inactive: 0.173.

For PEX6 C798 (UniProt Q13608), the “log2 ratio” value was inactive: 0.0135.

As for UniProt Q14004_C987, the “log2 ratio” value was inactive: -0.0425.

With GAMT C220 (UniProt Q14353), the “log2 ratio” value was inactive: 0.181.

Consider CTTN C246 (UniProt Q14247), for which the “log2 ratio” value is inactive: 0.297.

On to MDC1 C1720 (UniProt Q14676), for which the “log2 ratio” value was inactive: -0.0874.

In the case of KANK1 C781 (UniProt Q14678), the “log2 ratio” value was inactive: 0.0762.

In the case of DDX39B C198 (UniProt Q13838), the “log2 ratio” value is inactive: 0.196.

As to UniProt Q15019_C111, the “log2 ratio” value was inactive: 0.236.

In the case of SQSTM1 C128 (UniProt Q13501), the “log2 ratio” value is inactive: 0.0308.

For the target TRIM25 C186 (UniProt Q14258), the “log2 ratio” value was inactive: 0.0491.

SMC1A C1073 (UniProt Q14683): the “log2 ratio” value is inactive: -0.00409.

On to SPTAN1 C1314 (UniProt Q13813), for which the “log2 ratio” value was inactive: 0.141.

Turning to RAPGEF1 C817 (UniProt Q13905), the “log2 ratio” value is inactive: 0.135.

As to WRN C171 (UniProt Q14191), the “log2 ratio” value was inactive: 0.033.

Regarding TTLL12 C370 (UniProt Q14166), the “log2 ratio” value was inactive: -0.0582.

For SAFB2 C224 (UniProt Q14151), the “log2 ratio” value was inactive: -0.0223.

As for FHL3 C150 (UniProt Q13643), the “log2 ratio” value is inactive: 0.0596.

For TTLL12 C642 (UniProt Q14166), the “log2 ratio” value was inactive: -0.236.

Consider SQSTM1 C331 (UniProt Q13501), for which the “log2 ratio” value is inactive: 0.27.

On to UniProt Q15004_C54, for which the “log2 ratio” value was inactive: 0.362.

For SQSTM1 C26 (UniProt Q13501), the “log2 ratio” value was inactive: 0.151.

On to SQSTM1 C113 (UniProt Q13501), for which the “log2 ratio” value is inactive: 0.136.

Turning to BMS1 C556 (UniProt Q14692), the “log2 ratio” value was inactive: 0.394.

Turning to SPTAN1 C956 (UniProt Q13813), the “log2 ratio” value is inactive: 0.111.

As to SPCS2 C26 (UniProt Q15005), the “log2 ratio” value is inactive: 0.466.

Consider FHL1 C212 (UniProt Q13642), for which the “log2 ratio” value is inactive: -0.0748.

As to CKAP5 C1911 (UniProt Q14008), the “log2 ratio” value is inactive: 0.132.

Regarding RASA3 C58 (UniProt Q14644), the “log2 ratio” value is inactive: 0.0282.

On to MELK C339 (UniProt Q14680), for which the “log2 ratio” value is inactive: 0.317.

The values above are taken from the supplement of paper PMC11006884.
